From publication PMC9036047
Results are given in words; binding and its absence hold for the method and conditions named. In cells and extracts the contact can be indirect. These calls come from enrichment with a bait or labelling near it, and not all partners need be listed.

The chains behind the UniProt entries cited, without tags or fusion partners.
UniProt P08908: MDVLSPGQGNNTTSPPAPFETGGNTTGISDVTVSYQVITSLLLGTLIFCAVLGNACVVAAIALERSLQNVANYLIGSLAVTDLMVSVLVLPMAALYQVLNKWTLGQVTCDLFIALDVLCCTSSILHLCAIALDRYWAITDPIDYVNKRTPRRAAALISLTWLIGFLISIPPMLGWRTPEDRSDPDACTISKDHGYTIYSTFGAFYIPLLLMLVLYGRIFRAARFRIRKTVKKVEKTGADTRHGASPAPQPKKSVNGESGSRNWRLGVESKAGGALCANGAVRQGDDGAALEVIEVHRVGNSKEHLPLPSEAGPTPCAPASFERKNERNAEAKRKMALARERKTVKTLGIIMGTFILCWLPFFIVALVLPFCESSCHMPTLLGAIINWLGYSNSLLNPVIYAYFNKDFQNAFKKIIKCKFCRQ
UniProt P51665: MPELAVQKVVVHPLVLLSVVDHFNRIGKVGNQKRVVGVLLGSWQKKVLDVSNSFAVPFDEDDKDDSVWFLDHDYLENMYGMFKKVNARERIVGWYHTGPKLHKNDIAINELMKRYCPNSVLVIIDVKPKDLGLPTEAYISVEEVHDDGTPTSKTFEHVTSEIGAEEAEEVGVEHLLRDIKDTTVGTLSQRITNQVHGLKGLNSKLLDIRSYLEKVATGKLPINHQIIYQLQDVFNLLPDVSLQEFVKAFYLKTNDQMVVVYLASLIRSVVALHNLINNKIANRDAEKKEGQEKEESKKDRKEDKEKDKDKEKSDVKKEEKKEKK
UniProt P19474: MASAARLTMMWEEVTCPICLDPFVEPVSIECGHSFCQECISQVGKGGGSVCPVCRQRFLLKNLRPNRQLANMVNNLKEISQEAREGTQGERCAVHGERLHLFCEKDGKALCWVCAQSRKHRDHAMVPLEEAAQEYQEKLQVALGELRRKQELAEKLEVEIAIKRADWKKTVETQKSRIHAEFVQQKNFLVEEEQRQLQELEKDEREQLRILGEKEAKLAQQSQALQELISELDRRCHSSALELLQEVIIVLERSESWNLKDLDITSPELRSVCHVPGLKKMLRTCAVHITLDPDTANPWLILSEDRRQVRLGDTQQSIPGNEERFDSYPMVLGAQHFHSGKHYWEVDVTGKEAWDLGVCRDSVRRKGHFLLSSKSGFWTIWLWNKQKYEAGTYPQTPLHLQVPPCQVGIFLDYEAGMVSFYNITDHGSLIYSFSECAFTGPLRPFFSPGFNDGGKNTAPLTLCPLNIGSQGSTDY

Molecular target: 5-hydroxytryptamine receptor 1A (UniProt P08908)
Experiment: affinity purification with mass spectrometry; IP of HTR1A from cell lysate; silver-stained gel bands at 48 and 37 kD analysed by MS/MS

Substance: PSMD7 (from UniProt P51665 1-324)
- binding: binds

Substance: TRIM21 (from UniProt P19474 1-475) (enzyme)
- binding: binds
